# Laboratory results from the supplement of paper PMC10849652.
# Chains of the proteins cited; added tags and fusions are not shown. Lines headed by an entry give the natural chain unless they say otherwise; changes in a name come on top.
# UniProt Q9HC36: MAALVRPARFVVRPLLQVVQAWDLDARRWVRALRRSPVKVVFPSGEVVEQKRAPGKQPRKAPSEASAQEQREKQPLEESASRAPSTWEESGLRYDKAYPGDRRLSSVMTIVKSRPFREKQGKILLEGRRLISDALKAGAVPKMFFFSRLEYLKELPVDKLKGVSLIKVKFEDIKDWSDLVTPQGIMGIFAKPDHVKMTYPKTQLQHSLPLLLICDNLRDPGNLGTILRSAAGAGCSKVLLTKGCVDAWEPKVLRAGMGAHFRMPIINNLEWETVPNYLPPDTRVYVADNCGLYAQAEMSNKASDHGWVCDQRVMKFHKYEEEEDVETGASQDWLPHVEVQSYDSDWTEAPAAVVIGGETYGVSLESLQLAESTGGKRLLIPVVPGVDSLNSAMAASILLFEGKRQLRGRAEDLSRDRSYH
# UniProt Q99583: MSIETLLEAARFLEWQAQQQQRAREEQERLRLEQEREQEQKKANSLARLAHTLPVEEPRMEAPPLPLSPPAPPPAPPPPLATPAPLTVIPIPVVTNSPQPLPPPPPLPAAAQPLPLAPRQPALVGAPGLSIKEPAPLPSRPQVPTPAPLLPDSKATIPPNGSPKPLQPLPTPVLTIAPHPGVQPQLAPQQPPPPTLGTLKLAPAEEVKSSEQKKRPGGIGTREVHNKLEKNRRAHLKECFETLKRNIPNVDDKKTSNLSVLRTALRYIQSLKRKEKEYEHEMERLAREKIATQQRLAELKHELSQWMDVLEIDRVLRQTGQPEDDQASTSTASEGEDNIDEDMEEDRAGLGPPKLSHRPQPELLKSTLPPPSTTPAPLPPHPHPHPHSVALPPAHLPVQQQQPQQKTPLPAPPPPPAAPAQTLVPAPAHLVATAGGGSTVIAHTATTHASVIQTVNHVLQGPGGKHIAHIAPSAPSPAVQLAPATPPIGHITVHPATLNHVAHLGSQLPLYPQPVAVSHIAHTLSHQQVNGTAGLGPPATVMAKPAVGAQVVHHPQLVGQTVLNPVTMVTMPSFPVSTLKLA
# UniProt Q15014, whole entry, looked up: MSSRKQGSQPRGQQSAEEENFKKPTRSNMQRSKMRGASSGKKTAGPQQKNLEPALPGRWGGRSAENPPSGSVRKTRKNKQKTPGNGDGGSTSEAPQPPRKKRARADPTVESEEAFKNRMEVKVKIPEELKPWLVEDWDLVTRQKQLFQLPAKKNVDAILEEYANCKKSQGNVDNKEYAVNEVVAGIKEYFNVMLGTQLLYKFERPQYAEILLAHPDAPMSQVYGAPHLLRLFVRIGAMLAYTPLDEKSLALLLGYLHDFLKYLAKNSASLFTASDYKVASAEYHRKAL
# UniProt Q14165: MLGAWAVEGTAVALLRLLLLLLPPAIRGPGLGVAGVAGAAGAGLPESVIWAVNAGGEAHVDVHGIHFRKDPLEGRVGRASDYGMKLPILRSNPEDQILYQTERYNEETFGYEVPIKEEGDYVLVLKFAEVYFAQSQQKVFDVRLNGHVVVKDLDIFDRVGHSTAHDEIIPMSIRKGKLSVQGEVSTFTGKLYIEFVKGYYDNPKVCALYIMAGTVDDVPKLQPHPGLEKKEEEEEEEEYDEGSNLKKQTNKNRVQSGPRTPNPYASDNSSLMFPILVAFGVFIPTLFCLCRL
# UniProt Q9BV20: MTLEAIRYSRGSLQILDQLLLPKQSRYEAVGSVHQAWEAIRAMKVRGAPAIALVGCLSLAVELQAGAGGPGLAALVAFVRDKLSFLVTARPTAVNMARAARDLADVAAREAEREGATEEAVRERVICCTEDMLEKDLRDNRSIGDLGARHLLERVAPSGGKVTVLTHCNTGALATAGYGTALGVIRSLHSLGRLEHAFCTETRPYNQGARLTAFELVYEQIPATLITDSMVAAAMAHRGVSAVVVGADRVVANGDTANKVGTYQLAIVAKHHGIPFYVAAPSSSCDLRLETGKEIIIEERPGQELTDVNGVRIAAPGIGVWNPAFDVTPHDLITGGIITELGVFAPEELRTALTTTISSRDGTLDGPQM
# UniProt Q9HCE1: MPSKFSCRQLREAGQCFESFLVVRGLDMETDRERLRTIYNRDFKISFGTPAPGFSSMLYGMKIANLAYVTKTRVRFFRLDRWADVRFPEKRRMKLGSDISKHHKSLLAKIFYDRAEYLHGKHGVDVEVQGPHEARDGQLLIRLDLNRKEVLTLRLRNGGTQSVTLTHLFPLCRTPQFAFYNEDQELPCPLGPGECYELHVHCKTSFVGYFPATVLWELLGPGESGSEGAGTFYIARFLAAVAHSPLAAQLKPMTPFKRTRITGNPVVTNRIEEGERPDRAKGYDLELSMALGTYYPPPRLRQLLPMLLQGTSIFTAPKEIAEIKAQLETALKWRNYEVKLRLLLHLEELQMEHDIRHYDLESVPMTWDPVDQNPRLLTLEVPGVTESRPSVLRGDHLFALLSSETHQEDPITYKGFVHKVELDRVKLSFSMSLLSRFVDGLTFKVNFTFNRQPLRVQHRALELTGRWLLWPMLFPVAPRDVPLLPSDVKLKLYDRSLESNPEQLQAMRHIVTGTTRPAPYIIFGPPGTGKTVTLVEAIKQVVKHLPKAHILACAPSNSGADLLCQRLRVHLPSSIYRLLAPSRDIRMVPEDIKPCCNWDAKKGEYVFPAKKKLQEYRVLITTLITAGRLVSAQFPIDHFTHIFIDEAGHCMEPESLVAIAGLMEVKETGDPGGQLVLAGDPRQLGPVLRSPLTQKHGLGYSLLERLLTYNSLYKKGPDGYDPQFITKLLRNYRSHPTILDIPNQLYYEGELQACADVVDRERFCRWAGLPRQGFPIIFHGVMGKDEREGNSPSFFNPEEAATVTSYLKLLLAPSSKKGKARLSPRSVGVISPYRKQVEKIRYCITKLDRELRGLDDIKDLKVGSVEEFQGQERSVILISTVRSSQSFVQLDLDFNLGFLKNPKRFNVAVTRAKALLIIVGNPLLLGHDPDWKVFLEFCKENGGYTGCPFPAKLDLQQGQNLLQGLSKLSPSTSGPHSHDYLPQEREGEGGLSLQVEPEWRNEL
# UniProt Q9BUB5: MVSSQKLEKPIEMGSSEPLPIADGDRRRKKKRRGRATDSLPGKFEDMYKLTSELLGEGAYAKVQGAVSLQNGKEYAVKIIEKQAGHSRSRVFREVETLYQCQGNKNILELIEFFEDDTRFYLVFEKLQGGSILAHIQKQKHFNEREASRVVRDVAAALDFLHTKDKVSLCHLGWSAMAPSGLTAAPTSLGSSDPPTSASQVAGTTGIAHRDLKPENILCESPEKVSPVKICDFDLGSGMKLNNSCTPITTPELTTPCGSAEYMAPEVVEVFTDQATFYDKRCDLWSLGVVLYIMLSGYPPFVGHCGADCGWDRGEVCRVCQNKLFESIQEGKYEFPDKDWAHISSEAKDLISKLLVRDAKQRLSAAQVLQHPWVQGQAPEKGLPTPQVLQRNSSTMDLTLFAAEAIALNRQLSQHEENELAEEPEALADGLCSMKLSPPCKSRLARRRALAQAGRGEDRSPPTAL
# UniProt Q8N3F8: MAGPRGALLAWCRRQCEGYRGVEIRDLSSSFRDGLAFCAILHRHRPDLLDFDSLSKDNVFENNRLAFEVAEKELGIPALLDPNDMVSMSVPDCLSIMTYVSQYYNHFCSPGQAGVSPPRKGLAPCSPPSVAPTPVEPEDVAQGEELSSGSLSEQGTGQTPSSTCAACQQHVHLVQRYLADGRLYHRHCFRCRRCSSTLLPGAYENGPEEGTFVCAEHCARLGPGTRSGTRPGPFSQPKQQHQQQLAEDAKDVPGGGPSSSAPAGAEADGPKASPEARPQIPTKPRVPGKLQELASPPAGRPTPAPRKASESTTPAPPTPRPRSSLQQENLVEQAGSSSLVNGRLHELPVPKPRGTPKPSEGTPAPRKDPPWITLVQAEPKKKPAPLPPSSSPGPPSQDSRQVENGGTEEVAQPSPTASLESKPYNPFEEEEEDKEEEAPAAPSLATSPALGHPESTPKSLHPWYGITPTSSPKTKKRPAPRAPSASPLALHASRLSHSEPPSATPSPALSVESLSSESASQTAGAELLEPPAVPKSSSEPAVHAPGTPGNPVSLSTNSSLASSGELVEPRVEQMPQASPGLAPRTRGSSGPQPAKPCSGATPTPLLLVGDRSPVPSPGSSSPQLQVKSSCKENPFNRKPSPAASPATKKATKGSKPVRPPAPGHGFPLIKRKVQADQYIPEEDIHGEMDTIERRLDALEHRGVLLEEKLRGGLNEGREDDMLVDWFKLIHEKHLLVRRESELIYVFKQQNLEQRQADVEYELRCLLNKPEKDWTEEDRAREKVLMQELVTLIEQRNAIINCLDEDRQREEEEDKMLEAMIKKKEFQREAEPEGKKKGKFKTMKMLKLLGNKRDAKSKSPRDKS
# UniProt Q567V2: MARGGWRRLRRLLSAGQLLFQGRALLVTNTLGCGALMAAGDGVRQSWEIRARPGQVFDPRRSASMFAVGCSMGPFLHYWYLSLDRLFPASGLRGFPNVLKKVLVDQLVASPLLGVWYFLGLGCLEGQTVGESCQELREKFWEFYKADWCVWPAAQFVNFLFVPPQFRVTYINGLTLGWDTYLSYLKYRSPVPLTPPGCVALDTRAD
# UniProt P22033: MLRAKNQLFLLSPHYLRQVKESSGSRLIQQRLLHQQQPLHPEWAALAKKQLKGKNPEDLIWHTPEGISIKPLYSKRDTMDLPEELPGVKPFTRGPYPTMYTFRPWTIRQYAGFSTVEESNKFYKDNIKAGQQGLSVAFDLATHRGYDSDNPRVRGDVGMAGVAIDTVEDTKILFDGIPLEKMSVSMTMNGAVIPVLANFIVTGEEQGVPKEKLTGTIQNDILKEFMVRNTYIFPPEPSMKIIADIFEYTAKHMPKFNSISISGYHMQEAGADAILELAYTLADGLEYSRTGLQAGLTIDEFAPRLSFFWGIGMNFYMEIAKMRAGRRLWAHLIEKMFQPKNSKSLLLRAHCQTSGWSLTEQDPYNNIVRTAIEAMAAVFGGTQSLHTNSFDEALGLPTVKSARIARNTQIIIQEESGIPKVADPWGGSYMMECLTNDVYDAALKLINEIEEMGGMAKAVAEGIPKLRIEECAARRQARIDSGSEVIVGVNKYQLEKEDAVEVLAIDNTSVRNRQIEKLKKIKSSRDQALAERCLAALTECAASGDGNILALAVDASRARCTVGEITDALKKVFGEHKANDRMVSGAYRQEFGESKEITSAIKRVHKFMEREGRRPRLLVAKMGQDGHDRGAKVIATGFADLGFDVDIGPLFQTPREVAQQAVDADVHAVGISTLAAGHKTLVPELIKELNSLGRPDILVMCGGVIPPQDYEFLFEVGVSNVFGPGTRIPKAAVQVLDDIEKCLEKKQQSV
# UniProt P40692: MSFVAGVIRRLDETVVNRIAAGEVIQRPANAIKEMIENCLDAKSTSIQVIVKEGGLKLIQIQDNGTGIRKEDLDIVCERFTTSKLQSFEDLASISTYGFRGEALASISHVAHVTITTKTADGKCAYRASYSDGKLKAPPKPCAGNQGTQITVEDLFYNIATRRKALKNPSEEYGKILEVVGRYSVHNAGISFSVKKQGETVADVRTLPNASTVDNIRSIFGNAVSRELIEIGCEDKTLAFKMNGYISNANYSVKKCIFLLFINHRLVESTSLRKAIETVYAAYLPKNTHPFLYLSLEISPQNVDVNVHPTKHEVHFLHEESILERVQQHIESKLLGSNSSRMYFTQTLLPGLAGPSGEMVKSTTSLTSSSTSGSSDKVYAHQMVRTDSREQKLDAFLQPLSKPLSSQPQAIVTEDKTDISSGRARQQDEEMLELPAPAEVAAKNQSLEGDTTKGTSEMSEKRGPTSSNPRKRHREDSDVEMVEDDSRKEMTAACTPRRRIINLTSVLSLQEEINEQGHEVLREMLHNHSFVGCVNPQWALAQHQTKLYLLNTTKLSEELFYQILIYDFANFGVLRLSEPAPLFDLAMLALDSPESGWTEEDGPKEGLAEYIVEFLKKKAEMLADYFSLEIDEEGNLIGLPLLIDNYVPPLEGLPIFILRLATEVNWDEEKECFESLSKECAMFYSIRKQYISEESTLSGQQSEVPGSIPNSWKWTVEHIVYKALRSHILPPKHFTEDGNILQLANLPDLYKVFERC
# UniProt O75030: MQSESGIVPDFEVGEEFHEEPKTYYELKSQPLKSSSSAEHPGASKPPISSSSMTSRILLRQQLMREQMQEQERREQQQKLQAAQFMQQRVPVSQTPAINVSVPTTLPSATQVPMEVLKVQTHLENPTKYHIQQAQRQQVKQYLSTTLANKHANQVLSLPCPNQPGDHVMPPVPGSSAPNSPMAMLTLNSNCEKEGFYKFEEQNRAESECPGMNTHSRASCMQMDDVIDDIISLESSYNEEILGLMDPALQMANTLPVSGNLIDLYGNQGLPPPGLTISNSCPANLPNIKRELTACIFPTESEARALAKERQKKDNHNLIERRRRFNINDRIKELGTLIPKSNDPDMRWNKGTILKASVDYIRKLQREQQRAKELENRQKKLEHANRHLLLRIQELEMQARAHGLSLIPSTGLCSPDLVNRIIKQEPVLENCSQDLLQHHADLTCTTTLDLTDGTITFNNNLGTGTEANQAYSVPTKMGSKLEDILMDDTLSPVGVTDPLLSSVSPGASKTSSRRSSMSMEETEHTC
# Some of the results follow.
# Legend:
# Assay in all cases: log2 fold change, soluble protein after heating vs DMSO (PISA); higher = thermal stabilisation; K562 cells, 10 uM, 30 min; active = over 0.2 and 3.5 SD of the protein, either way, in both replicates (recomputed)
# [1] = compound: COC1=CC=C(C=C1)CN2C=CC3=C2C=C(C=C3)C(=O)NO
# Summary of the method: (§1)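 K562 cells at 2×10^6 cells/mL were treated with 10 μM compound for 30 min. Aliquots were heated for 3 min across 48°C-58°C, pooled, and extracted in PBS with 0.5% NP-40 at 4°C; soluble protein was the supernatant after 21,000xg for 90 min. Soluble protein was quantified by TMTpro 16plex LC-MS/MS with channel sums equalised, and reported as log2 fold change in thermal stability against DMSO controls, with values from duplicates.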
# [2] = compound: CON(C)C(=O)N1N=C(c2cc(F)ccc2F)S[C@@]1(CCCN)c1ccccc1 [filanesib]
# Summary of the method: as §1
# [3] = compound: CO[C@H]1C[C@@H]2CC[C@@H](C)[C@@](O)(O2)C(=O)C(=O)N2CCCC[C@H]2C(=O)O[C@H]([C@H](C)C[C@@H]2CC[C@H](n3cnnn3)[C@H](OC)C2)CC(=O)[C@H](C)/C=C(\C)[C@@H](O)[C@@H](OC)C(=O)[C@H](C)C[C@H](C)/C=C/C=C/C=C/1C [zotarolimus]
# Summary of the method: as §1
# [4] = compound: COc1cc(C(=O)O)ccc1NC(=O)[C@@H]1N[C@@H](CC(C)(C)C)[C@](C#N)(c2ccc(Cl)cc2F)[C@H]1c1cccc(Cl)c1F [idasanutlin]
# Summary of the method: as §1
# [5] = compound: COc1cc(Nc2ncc3c(n2)-c2ccc(Cl)cc2C(c2c(F)cccc2OC)=NC3)ccc1C(=O)O [alisertib]
# Summary of the method: as §1
# [6] = compound: COc1cc2nc(-c3cc(F)ccc3O)nc(N[C@@H]3CNC[C@H]3C(C)(C)O)c2cc1OC
# Summary of the method: as §1
# [7] = compound: COc1cc2ncnc(Nc3ccc(F)c(Cl)c3)c2cc1OCCCN1CCOCC1 [gefitinib]
# Summary of the method: as §1
# [8] = compound: COc1cccc2cc(-c3nc([C@H]4CC[C@H](C(=O)O)CC4)n4ncnc(N)c34)[nH]c12
# Summary of the method: as §1
# [9] = compound: CS(=O)(=O)CCNCc1ccc(-c2ccc3ncnc(Nc4ccc(OCc5cccc(F)c5)c(Cl)c4)c3c2)o1 [lapatinib]
# Summary of the method: as §1
# [10] = compound: CS(=O)(=O)N1CCN(Cc2cc3nc(-c4cccc5[nH]ncc45)nc(N4CCOCC4)c3s2)CC1 [pictilisib]
# Summary of the method: as §1
Target,log2 fold change [1],log2 fold change [2],log2 fold change [3],log2 fold change [4],log2 fold change [5],log2 fold change [6],log2 fold change [7],log2 fold change [8],log2 fold change [9],log2 fold change [10]
MRM3 (UniProt Q9HC36),inactive: -0.25,inactive: 0.486,inactive: -0.001,inactive: 0.117,inactive: -0.092,inactive: -0.081,inactive: -0.035,inactive: -0.229,inactive: 0.163,inactive: -0.153
MRPL47 (UniProt Q9HD33),inactive: -0.068,inactive: 0.183,inactive: 0.072,inactive: -0.042,inactive: -0.087,inactive: -0.033,inactive: -0.134,inactive: -0.186,inactive: 0.072,active: 0.745
MRPL12 (UniProt P52815),inactive: -0.109,inactive: 0.014,inactive: 0.065,inactive: -0.001,inactive: -0.055,inactive: -0.19,inactive: 0.012,inactive: 0.003,inactive: 0,inactive: 0.127
MRPL13 (UniProt Q9BYD1),inactive: -0.186,inactive: 0.002,inactive: 0.078,inactive: -0.029,inactive: -0.206,inactive: 0,inactive: -0.168,inactive: 0.017,inactive: 0.102,inactive: -0.073
MRPL49 (UniProt Q13405),inactive: -0.149,inactive: 0.235,inactive: 0.089,inactive: -0.084,inactive: -0.076,inactive: -0.111,inactive: -0.031,inactive: -0.008,inactive: 0.081,inactive: 0.018
MNT (UniProt Q99583),inactive: 0.016,inactive: -0.025,inactive: -0.062,inactive: 0.049,inactive: 0.17,inactive: -0.041,inactive: 0.168,inactive: -0.048,inactive: -0.012,inactive: 0.064
MORF4L2 (UniProt Q15014),inactive: -0.149,inactive: 0.146,inactive: -0.044,inactive: 0.045,inactive: -0.066,inactive: -0.085,inactive: -0.048,inactive: -0.074,inactive: 0.03,inactive: -0.063
MLEC (UniProt Q14165),inactive: -0.043,inactive: -0.005,inactive: 0.032,inactive: 0.009,inactive: -0.047,inactive: 0.034,inactive: -0.029,inactive: 0.006,inactive: -0.002,inactive: -0.014
MRI1 (UniProt Q9BV20),inactive: -0.014,inactive: -0.072,inactive: 0.016,inactive: -0.026,inactive: -0.073,inactive: 0.042,inactive: 0.012,inactive: -0.02,inactive: -0.001,inactive: 0.068
MRPL11 (UniProt Q9Y3B7),inactive: 0.015,inactive: 0.139,inactive: 0.116,inactive: -0.088,inactive: -0.044,inactive: 0,inactive: -0.054,inactive: -0.095,inactive: 0.168,inactive: -0.044
MOV10 (UniProt Q9HCE1),inactive: -0.048,inactive: 0.155,inactive: -0.005,inactive: 0.071,inactive: -0.073,inactive: -0.021,inactive: 0.002,inactive: -0.1,inactive: 0.073,inactive: -0.048
MRPL17 (UniProt Q9NRX2),inactive: -0.074,inactive: 0.222,inactive: 0.027,inactive: -0.07,inactive: -0.115,inactive: -0.062,inactive: -0.112,inactive: -0.071,inactive: 0.13,inactive: -0.023
MRPL14 (UniProt Q6P1L8),inactive: 0.138,inactive: -0.036,inactive: 0.033,inactive: -0.09,inactive: -0.094,inactive: -0.034,inactive: 0.009,inactive: 0.001,inactive: 0.034,inactive: -0.158
MKNK1 (UniProt Q9BUB5),inactive: 0.021,inactive: -0.108,inactive: -0.022,inactive: -0.075,inactive: 0.008,inactive: -0.021,active: 0.525,inactive: -0.073,inactive: 0.015,inactive: -0.058
MICALL1 (UniProt Q8N3F8),inactive: -0.022,inactive: -0.042,inactive: -0.081,inactive: 0.086,inactive: 0.292,inactive: 0.145,inactive: -0.034,inactive: -0.102,inactive: -0.175,inactive: 0.059
MPV17L2 (UniProt Q567V2),inactive: 0.054,inactive: -0.004,inactive: -0.067,inactive: -0.088,inactive: 0.02,inactive: 0.051,inactive: -0.005,inactive: -0.028,inactive: -0.027,inactive: 0.142
MON2 isoform 5 (UniProt Q7Z3U7),inactive: -0.003,inactive: -0.017,inactive: 0.101,inactive: -0.147,inactive: 0.046,inactive: 0.091,inactive: 0.039,inactive: -0.004,inactive: 0.036,inactive: 0.048
MICAL3 (UniProt Q7RTP6),inactive: 0.027,inactive: -0.106,inactive: -0.08,inactive: 0.057,inactive: 0.073,inactive: 0.118,inactive: 0.058,inactive: -0.032,inactive: -0.073,inactive: 0.092
MMUT (UniProt P22033),inactive: -0.029,inactive: -0.049,inactive: 0.012,inactive: -0.046,inactive: 0.042,inactive: 0.007,inactive: 0.025,inactive: 0.011,inactive: 0.021,inactive: 0.039
MLH1 (UniProt P40692),–,–,inactive: 0.024,inactive: 0.03,inactive: -0.171,inactive: -0.135,–,inactive: -0.1,inactive: 0.091,inactive: 0.083
MITF (UniProt O75030),inactive: 0.122,inactive: 0.106,–,inactive: -0.042,inactive: 0.008,–,inactive: -0.13,inactive: 0,–,inactive: -0.397

# Whole records as entered above. Values in the order: log2 fold change [1]	log2 fold change [2]	log2 fold change [3]	log2 fold change [4]	log2 fold change [5]	log2 fold change [6]	log2 fold change [7]	log2 fold change [8]	log2 fold change [9]	log2 fold change [10]
# MRM3 (UniProt Q9HC36) is entered as inactive: -0.25	inactive: 0.486	inactive: -0.001	inactive: 0.117	inactive: -0.092	inactive: -0.081	inactive: -0.035	inactive: -0.229	inactive: 0.163	inactive: -0.153
# MPV17L2 (UniProt Q567V2) is entered as inactive: 0.054	inactive: -0.004	inactive: -0.067	inactive: -0.088	inactive: 0.02	inactive: 0.051	inactive: -0.005	inactive: -0.028	inactive: -0.027	inactive: 0.142
